Experimental data reported in article PMC10933368.

Amino acid sequences for entries named in this document (tags omitted). A change or cut given only in a name is not applied to a line headed by its entry.
UniProt E9AM47: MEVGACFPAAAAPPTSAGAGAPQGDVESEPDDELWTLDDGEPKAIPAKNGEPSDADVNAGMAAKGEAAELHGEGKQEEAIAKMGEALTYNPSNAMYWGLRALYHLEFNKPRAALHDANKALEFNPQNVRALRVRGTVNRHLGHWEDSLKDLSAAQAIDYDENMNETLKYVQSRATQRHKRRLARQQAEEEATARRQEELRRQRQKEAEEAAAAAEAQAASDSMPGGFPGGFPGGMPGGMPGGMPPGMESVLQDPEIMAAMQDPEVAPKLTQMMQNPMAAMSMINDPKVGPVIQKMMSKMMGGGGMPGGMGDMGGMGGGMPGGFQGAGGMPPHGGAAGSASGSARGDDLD
UniProt E9ALS6: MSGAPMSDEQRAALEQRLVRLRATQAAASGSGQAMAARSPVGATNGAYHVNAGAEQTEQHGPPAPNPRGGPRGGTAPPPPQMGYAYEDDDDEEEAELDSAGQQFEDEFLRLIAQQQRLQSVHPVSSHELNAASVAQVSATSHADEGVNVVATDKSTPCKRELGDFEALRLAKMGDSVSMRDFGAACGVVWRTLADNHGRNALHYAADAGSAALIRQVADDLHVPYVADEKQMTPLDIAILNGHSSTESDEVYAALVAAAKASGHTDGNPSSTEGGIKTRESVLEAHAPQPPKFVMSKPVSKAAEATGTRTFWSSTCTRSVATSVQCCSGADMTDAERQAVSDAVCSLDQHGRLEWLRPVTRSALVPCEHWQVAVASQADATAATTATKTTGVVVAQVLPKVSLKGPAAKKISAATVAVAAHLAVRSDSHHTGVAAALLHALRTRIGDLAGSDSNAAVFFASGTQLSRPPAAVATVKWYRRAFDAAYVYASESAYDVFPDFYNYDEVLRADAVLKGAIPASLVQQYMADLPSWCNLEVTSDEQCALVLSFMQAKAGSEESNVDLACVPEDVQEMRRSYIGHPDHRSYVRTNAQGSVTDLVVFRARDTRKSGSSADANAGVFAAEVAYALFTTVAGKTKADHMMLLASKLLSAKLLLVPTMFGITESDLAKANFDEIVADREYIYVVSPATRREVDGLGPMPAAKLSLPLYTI
UniProt E9AQR7: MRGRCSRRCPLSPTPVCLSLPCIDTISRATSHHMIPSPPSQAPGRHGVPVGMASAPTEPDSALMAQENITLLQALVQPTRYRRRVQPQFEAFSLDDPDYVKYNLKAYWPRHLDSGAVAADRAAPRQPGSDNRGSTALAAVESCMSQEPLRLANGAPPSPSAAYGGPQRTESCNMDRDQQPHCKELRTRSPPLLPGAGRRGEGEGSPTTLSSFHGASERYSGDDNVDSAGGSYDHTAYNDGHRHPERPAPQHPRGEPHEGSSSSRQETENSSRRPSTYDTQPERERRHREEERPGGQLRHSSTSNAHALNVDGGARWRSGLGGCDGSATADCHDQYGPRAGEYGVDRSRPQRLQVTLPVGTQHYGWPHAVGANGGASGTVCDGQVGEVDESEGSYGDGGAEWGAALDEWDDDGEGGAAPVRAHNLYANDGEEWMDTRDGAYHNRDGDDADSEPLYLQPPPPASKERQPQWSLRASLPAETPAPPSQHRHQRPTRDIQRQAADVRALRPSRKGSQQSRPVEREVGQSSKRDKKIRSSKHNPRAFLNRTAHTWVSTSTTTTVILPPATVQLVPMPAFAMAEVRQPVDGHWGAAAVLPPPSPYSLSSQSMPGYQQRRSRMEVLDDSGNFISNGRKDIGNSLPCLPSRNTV
UniProt E9B5D9: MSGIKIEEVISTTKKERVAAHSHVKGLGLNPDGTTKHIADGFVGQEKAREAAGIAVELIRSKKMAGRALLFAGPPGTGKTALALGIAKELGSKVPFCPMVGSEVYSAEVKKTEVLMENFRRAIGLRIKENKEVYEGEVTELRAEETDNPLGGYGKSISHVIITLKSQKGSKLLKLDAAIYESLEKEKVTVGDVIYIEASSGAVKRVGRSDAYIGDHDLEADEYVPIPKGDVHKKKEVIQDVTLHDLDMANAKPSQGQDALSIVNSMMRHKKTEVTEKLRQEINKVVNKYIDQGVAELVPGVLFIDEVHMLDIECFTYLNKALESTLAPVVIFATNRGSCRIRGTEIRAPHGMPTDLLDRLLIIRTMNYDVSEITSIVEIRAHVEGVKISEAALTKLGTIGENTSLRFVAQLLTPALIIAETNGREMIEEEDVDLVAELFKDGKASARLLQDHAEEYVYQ
UniProt E9B552: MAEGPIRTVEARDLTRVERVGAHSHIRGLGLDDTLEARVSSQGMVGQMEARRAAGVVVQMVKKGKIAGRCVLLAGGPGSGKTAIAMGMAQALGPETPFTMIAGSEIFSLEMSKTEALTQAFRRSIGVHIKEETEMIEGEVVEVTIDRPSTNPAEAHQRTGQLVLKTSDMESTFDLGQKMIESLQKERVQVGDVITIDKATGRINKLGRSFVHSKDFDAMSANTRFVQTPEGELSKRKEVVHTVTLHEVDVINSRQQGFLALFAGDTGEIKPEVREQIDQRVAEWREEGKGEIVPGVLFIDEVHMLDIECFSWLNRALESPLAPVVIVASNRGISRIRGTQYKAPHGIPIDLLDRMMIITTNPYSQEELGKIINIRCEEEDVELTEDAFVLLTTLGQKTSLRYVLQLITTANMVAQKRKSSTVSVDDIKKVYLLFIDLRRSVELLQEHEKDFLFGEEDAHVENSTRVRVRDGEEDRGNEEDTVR

Key:
[1] = target: TOR1 (LmxM.36.6320), L. mexicana (L. mexicana) (UniProt E9AU66); test: affinity purification with mass spectrometry; Parasites cross-linked with 1 mM DSP (10 min, 26 °C), lysed in 1% IgePal-CA-630, 50 mM Tris pH 7.5, 250 mM NaCl, 1 mM EDTA; Twin-Strep baits held on MagStrep XT resin (2 h, 4 °C), eluted with 50 mM biotin; label-free quantification against the control bait LmxM.29.3580, SAINTq, FDR 10%
[2] = target: RPTOR1 (LmxM.25.0610), L. mexicana (L. mexicana) (UniProt E9AXD8); test: as above

| binding [1] | binding [2] | Substance |
| --- | --- | --- |
| binds | – | HIP (HSC-70 interacting protein, LmxM.08_29.0320) (from UniProt E9AM47) |
| binds | binds | LmxM.08_29.1470 (from UniProt E9ALS6) |
| binds | binds | LmxM.16.1080 (from UniProt E9AQR7) |
| binds | – | RPTOR1 (LmxM.25.0610), L. mexicana (from UniProt E9AXD8) |
| binds | – | RUVBL1 (LmxM.33.3500) (from UniProt E9B5D9) |
| binds | – | RUVBL2 (LmxM.33.2610) (from UniProt E9B552) |
| – | binds | TOR1 (LmxM.36.6320), L. mexicana (from UniProt E9AU66) |

These are yes or no findings as the source states them, for the method shown. Binding seen in cells or lysates may run through a third protein. A yes stands for co-enrichment or nearness to the bait. Other partners may have been found.
